From the supplement of paper PMC8728848
Some of the results follow.

How the values were obtained:
Assay in all cases: glycan array binding signal (z-score within array); higher = stronger binding
Conditions in all cases: glycan notation: IUPAC condensed, linker removed
Gal(a1-3)Gal(b1-4)GlcNAc = target: Gal(a1-3)Gal(b1-4)GlcNAc
Method in brief: (§1)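 Glycan array data came from 3228 arrays in the Consortium for Functional Glycomics database, and only arrays with an available protein sequence were kept. Glycan names were put into IUPAC-condensed notation, and columns mapping to the same glycan were averaged. The binding signal is a within-array Z-score, averaged across arrays of one protein sequence run at different concentrations or buffers and across linkers. A negative Z-score can be read as non-binding.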

[1] = target: Gal(a1-3)Gal(b1-4)GlcNAc(b1-2)Man
Method in brief: as §1

[2] = target: Gal(a1-3)Gal(b1-4)GlcNAc(b1-2)Man(a1-3)[Gal(a1-3)Gal(b1-4)GlcNAc(b1-2)Man(a1-6)]Man(b1-4)GlcNAc(b1-4)GlcNAc
Method in brief: as §1

[3] = target: Gal(a1-3)Gal(b1-4)GlcNAc(b1-3)GalNAc
Method in brief: as §1

[4] = target: Gal(a1-3)Gal(b1-4)GlcNAc(b1-6)GalNAc
Method in brief: as §1

[5] = target: Gal(a1-3)Gal(b1-4)[Fuc(a1-3)]GlcNAc
Method in brief: as §1

[6] = target: Gal(a1-3)Gal(b1-4)[Fuc(a1-3)]GlcNAc(b1-2)Man(a1-3)[Gal(a1-3)Gal(b1-4)[Fuc(a1-3)]GlcNAc(b1-2)Man(a1-6)]Man(b1-4)GlcNAc(b1-4)GlcNAc
Method in brief: as §1

Gal(a1-3)GalNAc = target: Gal(a1-3)GalNAc
Method in brief: as §1

[7] = target: Gal(a1-3)[Gal(a1-4)]Gal(b1-4)GlcNAc
Method in brief: as §1

[8] = target: Gal(a1-4)Gal(b1-3)GlcNAc(b1-2)Man(a1-3)[Gal(a1-4)Gal(b1-3)GlcNAc(b1-2)Man(a1-6)]Man(b1-4)GlcNAc(b1-4)GlcNAc
Method in brief: as §1

Gal(a1-4)Gal(b1-4)Glc = target: Gal(a1-4)Gal(b1-4)Glc
Method in brief: as §1

Gal(a1-4)Gal(b1-4)GlcNAc = target: Gal(a1-4)Gal(b1-4)GlcNAc
Method in brief: as §1

[9] = target: Gal(a1-4)Gal(b1-4)GlcNAc(b1-2)Man(a1-3)[Gal(a1-4)Gal(b1-4)GlcNAc(b1-2)Man(a1-6)]Man(b1-4)GlcNAc(b1-4)GlcNAc
Method in brief: as §1

[10] = target: Gal(a1-4)Gal(b1-4)GlcNAc(b1-3)Gal(b1-4)Glc
Method in brief: as §1

Gal(a1-4)GlcNAc = target: Gal(a1-4)GlcNAc
Method in brief: as §1

Gal(a1-6)Glc = target: Gal(a1-6)Glc
Method in brief: as §1

Gal(b1-2)Gal = target: Gal(b1-2)Gal
Method in brief: as §1

Gal(b1-3)Gal = target: Gal(b1-3)Gal
Method in brief: as §1

Gal(b1-3)Gal(b1-4)GlcNAc = target: Gal(b1-3)Gal(b1-4)GlcNAc
Method in brief: as §1

Gal(b1-3)GalNAc = target: Gal(b1-3)GalNAc
Method in brief: as §1

[11] = target: Gal(b1-3)GalNAc(a1-3)[Fuc(a1-2)]Gal(b1-4)Glc
Method in brief: as §1

[12] = target: Gal(b1-3)GalNAc(a1-3)[Fuc(a1-2)]Gal(b1-4)GlcNAc
Method in brief: as §1

Gal(b1-3)GalNAc(b1-3)Gal = target: Gal(b1-3)GalNAc(b1-3)Gal
Method in brief: as §1

[13] = target: Gal(b1-3)GalNAc(b1-3)Gal(a1-4)Gal(b1-4)Glc
Method in brief: as §1

[14] = target: Gal(b1-3)GalNAc(b1-4)Gal(b1-4)Glc
Method in brief: as §1

[15] = target: Gal(b1-3)GalNAc(b1-4)[Neu5Ac(a2-3)]Gal(b1-4)Glc
Method in brief: as §1

Gal(b1-3)GlcNAc = target: Gal(b1-3)GlcNAc
Method in brief: as §1

[16] = target: Gal(b1-3)GlcNAc(a1-3)Gal(b1-4)GlcNAc
Method in brief: as §1

[17] = target: Gal(b1-3)GlcNAc(a1-6)Gal(b1-4)GlcNAc
Method in brief: as §1

Gal(b1-3)GlcNAc(b1-2)Man = target: Gal(b1-3)GlcNAc(b1-2)Man
Method in brief: as §1

[18] = target: Gal(b1-3)GlcNAc(b1-2)Man(a1-3)[Gal(b1-3)GlcNAc(b1-2)Man(a1-6)]Man(b1-4)GlcNAc(b1-4)GlcNAc
Method in brief: as §1

[19] = target: Gal(b1-3)GlcNAc(b1-2)Man(a1-3)[Gal(b1-3)GlcNAc(b1-2)Man(a1-6)]Man(b1-4)GlcNAc(b1-4)[Fuc(a1-6)]GlcNAc
Method in brief: as §1

[20] = target: Gal(b1-3)GlcNAc(b1-2)Man(a1-3)[GlcNAc(b1-4)][Gal(b1-3)GlcNAc(b1-2)Man(a1-6)]Man(b1-4)GlcNAc(b1-4)GlcNAc
Method in brief: as §1

[21] = target: Gal(b1-3)GlcNAc(b1-2)[Gal(b1-3)GlcNAc(b1-6)]Man(a1-6)[Gal(b1-3)GlcNAc(b1-2)Man(a1-3)]Man(b1-4)GlcNAc(b1-4)GlcNAc
Method in brief: as §1

[22] = target: Gal(b1-3)GlcNAc(b1-3)Gal(b1-3)GlcNAc
Method in brief: as §1

[23] = target: Gal(b1-3)GlcNAc(b1-3)Gal(b1-4)Glc
Method in brief: as §1

[24] = target: Gal(b1-3)GlcNAc(b1-3)Gal(b1-4)GlcNAc
Method in brief: as §1

[25] = target: Gal(b1-3)GlcNAc(b1-3)Gal(b1-4)GlcNAc(b1-2)Man(a1-3)[Gal(b1-3)GlcNAc(b1-3)Gal(b1-4)GlcNAc(b1-2)Man(a1-6)]Man(b1-4)GlcNAc(b1-4)GlcNAc
Method in brief: as §1

[26] = target: Gal(b1-3)GlcNAc(b1-3)Gal(b1-4)GlcNAc(b1-2)[Gal(b1-3)GlcNAc(b1-3)Gal(b1-4)GlcNAc(b1-6)]Man(a1-6)[Gal(b1-3)GlcNAc(b1-3)Gal(b1-4)GlcNAc(b1-2)Man(a1-3)]Man(b1-4)GlcNAc(b1-4)[Fuc(a1-6)]GlcNAc
Method in brief: as §1

[27] = target: Gal(b1-3)GlcNAc(b1-3)Gal(b1-4)GlcNAc(b1-3)Gal(b1-4)GlcNAc(b1-2)[Gal(b1-3)GlcNAc(b1-3)Gal(b1-4)GlcNAc(b1-3)Gal(b1-4)GlcNAc(b1-6)]Man(a1-6)[Gal(b1-3)GlcNAc(b1-3)Gal(b1-4)GlcNAc(b1-3)Gal(b1-4)GlcNAc(b1-2)Man(a1-3)]Man(b1-4)GlcNAc(b1-4)[Fuc(a1-6)]GlcNAc
Method in brief: as §1

[28] = target: Gal(b1-3)GlcNAc(b1-3)Gal(b1-4)GlcNAc(b1-6)[Gal(b1-3)GlcNAc(b1-3)]Gal(b1-4)Glc
Method in brief: as §1

[29] = target: Gal(b1-3)GlcNAc(b1-3)Gal(b1-4)[Fuc(a1-3)]GlcNAc
Method in brief: as §1

[30] = target: Gal(b1-3)GlcNAc(b1-3)Gal(b1-4)[Fuc(a1-3)]GlcNAc(b1-6)[Gal(b1-3)GlcNAc(b1-3)]Gal(b1-4)Glc
Method in brief: as §1

[31] = target: Gal(b1-3)GlcNAc(b1-3)GalNAc
Method in brief: as §1

[32] = target: Gal(b1-3)GlcNAc(b1-6)Gal(b1-4)GlcNAc
Method in brief: as §1

B1: Epa20 (Candida glabrata) (protein)
chain: MGSSHHHHHHSSGLVPRGSHMASSNIPNNYPLGCSNKYSGHLPGLKMELYSYNYVNPRHPDPQNPGKLDQLYDPNLLGTYECFDSSYKDINYPRVGYKSKTLIGRSDGVSGILNFNFVPPWGCMPQKGQLPPAYNFKSNITLSNFTMILFGYFKPKISGNHIFSLHGDDLIYLNFGAGNAFDCCRQESSADNFGNYQAFSLWGINWEKKTLTVYLDMNTYYPIRIFYNNRDYQAIFNFSFKTEFDSSPVIDFQDYFFFLRDIDGGCPGEV
- glycan array binding signal (z-score) (Gal(a1-3)Gal(b1-4)GlcNAc): -0.07
- glycan array binding signal (z-score) [1]: -0.719
- glycan array binding signal (z-score) [2]: -0.147
- glycan array binding signal (z-score) [3]: -0.19
- glycan array binding signal (z-score) [4]: -0.344
- glycan array binding signal (z-score) [5]: -0.728
- glycan array binding signal (z-score) [6]: 1.03
- glycan array binding signal (z-score) (Gal(a1-3)GalNAc): -0.523
- glycan array binding signal (z-score) [7]: -0.118
- glycan array binding signal (z-score) [8]: 0.501
- glycan array binding signal (z-score) (Gal(a1-4)Gal(b1-4)Glc): 0.322
- glycan array binding signal (z-score) (Gal(a1-4)Gal(b1-4)GlcNAc): -0.012
- glycan array binding signal (z-score) [9]: 0.056
- glycan array binding signal (z-score) [10]: 0.122
- glycan array binding signal (z-score) (Gal(a1-4)GlcNAc): 0.65
- glycan array binding signal (z-score) (Gal(a1-6)Glc): 0.355
- glycan array binding signal (z-score) (Gal(b1-2)Gal): -0.763
- glycan array binding signal (z-score) (Gal(b1-3)Gal): -0.307
- glycan array binding signal (z-score) (Gal(b1-3)Gal(b1-4)GlcNAc): 0.325
- glycan array binding signal (z-score) (Gal(b1-3)GalNAc): -0.365
- glycan array binding signal (z-score) [11]: -0.089
- glycan array binding signal (z-score) [12]: -0.045
- glycan array binding signal (z-score) (Gal(b1-3)GalNAc(b1-3)Gal): 0.604
- glycan array binding signal (z-score) [13]: -0.044
- glycan array binding signal (z-score) [14]: 0.899
- glycan array binding signal (z-score) [15]: 0.64
- glycan array binding signal (z-score) (Gal(b1-3)GlcNAc): -0.446
- glycan array binding signal (z-score) [16]: -0.351
- glycan array binding signal (z-score) [17]: -0.498
- glycan array binding signal (z-score) (Gal(b1-3)GlcNAc(b1-2)Man): 0.049
- glycan array binding signal (z-score) [18]: 0.704
- glycan array binding signal (z-score) [19]: 1.2
- glycan array binding signal (z-score) [20]: -0.184
- glycan array binding signal (z-score) [21]: -0.523
- glycan array binding signal (z-score) [22]: -0.177
- glycan array binding signal (z-score) [23]: -0.669
- glycan array binding signal (z-score) [24]: -0.396
- glycan array binding signal (z-score) [25]: -0.166
- glycan array binding signal (z-score) [26]: 0.537
- glycan array binding signal (z-score) [27]: 1.27
- glycan array binding signal (z-score) [28]: -0.164
- glycan array binding signal (z-score) [29]: -0.421
- glycan array binding signal (z-score) [30]: -0.689
- glycan array binding signal (z-score) [31]: -0.065
- glycan array binding signal (z-score) [32]: -0.042
